This test addresses T1, BirA*-tagged TMEM70 (human) (UniProt Q9BUB7).
T1 sequence: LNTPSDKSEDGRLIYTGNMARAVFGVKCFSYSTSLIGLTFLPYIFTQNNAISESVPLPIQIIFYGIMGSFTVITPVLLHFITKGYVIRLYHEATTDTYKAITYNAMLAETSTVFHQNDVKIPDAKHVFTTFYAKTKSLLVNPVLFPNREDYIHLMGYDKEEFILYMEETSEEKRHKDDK
Description: proximity labelling.

By UniProt entry, the sequences of proteins in these tests, tags left out. Residues count along the entry.
UniProt Q9Y375, residues 25-327: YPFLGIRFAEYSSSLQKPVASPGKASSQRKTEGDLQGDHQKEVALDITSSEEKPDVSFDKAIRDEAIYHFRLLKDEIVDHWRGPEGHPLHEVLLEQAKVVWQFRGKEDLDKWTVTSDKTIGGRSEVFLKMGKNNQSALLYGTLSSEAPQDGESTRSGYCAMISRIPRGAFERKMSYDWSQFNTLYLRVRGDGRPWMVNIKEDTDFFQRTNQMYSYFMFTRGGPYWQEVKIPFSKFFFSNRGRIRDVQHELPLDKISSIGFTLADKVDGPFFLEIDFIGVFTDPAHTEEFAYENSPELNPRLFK
UniProt Q9P032: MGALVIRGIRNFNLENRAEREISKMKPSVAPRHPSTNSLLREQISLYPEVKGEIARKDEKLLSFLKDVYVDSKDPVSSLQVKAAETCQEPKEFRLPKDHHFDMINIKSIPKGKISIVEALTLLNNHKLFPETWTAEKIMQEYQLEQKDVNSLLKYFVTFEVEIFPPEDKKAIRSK

No constants are given. Whether binding was seen depends on the method and setting. Binding seen in cells or lysates may run through a third protein. Here binding means that the protein was enriched with, or labelled near, the bait; the list need not be complete. Sequences can lack the tags named with a protein.

As to NDUFAF2 (human (endogenous in HEK293)), the binding result is given as “binds”.
On to NDUFAF1 (from UniProt Q9Y375 25-327), for which the binding result was “binds”.
For the molecule NDUFAF4 (from UniProt Q9P032 1-175), the binding result was “binds”.

B1: NDUFAF5 (protein, UniProt Q5TEU4 37-345)
chain: GSTSPRTLNIFDRDLKRKQKNWAARQPEPTKFDYLKEEVGSRIADRVYDIPRNFPLALDLGCGRGYIAQYLNKETIGKFFQADIAENALKNSSETEIPTVSVLADEEFLPFKENTFDLVVSSLSLHWVNDLPRALEQIHYILKPDGVFIGAMFGGDTLYELRCSLQLAETEREGGFSPHISPFTAVNDLGHLLGRAGFNTLTVDTDEIQVNYPGMFELMEDLQGMGESNCAWNRKALLHRDTMLAAAAVYREMYRNEDGSVPATYQIYYMIGWKYHESQARPAERGSATVSFGELGKINNLMPPGKKSQ
With B1, the binding result is listed as “binds”.

The values are drawn from article doi:10.1101/697185.
